{"source": "patent US20250297262A1", "about": "“REGULATION OF TYPE I IFN SIGNALING BY TARGETING A DECOY RECEPTOR” (THE REGENTS OF THE UNIVERSITY OF COLORADO A BODY CORPORATE, priority 2022, published 2025)", "test_system": "HeLa mutant cell lines", "experiment": "Crystal violet cell density across HeLa mutant cell lines upon IFNb or Decitabine treatment (FIG. 14)", "format": "cell-based, human", "settings": "all HeLa cell lines (WT and KO); Decitabine (DAC), six days", "note": "For at least one compound, name, drawing or mass did not settle the structure."}
{"smiles": "Nc1ncn([C@H]2C[C@H](O)[C@@H](CO)O2)c(=O)n1", "note": "[DAC, Decitabine]", "values": [{"measurement": "cell density treated vs untreated (crystal violet)", "result": "reduced cell density in all cell lines"}]}
